This test addresses FAS-associated factor 1 (FAF1) (human (endogenous in HCT116)) (UniProt Q9UNN5). Kind of test: co-IP; immunoprecipitation of endogenous FAF1, Western blot; cells with and without USP7 inhibition (Figure S4M); cell line and buffers not shown. On the technique in general: A western blot detects proteins with antibodies after separation by electrophoresis.

Sequences of proteins named here, by UniProt entry; tags and fusion partners are left off.
UniProt Q9UNN5: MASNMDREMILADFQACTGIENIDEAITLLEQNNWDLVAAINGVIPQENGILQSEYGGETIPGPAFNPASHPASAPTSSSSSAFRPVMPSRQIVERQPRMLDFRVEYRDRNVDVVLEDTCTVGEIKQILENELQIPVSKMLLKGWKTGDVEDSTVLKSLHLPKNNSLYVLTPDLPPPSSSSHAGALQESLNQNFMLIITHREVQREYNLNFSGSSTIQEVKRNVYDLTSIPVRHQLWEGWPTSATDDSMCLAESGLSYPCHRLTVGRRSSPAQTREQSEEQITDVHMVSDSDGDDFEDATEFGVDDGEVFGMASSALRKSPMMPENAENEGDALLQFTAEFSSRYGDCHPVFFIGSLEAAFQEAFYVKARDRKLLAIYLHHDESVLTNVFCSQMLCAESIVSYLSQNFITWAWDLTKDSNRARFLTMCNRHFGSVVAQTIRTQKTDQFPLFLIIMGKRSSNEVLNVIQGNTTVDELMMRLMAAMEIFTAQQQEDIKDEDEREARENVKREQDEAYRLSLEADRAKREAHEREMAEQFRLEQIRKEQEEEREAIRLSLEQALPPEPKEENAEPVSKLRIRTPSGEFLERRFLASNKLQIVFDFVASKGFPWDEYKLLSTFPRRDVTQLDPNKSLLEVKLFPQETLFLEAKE
UniProt P49005: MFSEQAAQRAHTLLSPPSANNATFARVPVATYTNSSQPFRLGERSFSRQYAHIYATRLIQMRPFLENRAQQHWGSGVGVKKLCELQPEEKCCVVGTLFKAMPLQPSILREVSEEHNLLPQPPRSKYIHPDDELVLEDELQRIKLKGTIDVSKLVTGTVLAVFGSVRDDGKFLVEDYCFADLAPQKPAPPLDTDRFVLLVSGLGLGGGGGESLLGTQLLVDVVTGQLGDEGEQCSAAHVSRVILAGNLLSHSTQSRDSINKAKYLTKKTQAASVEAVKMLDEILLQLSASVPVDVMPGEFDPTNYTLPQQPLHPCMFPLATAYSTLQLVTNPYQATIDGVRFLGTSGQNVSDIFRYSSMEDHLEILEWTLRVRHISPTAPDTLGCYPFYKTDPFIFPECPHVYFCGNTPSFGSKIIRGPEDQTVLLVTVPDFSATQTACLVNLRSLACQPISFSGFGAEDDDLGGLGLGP

No constants are given. Whether binding was seen depends on the method and setting. In cells and extracts the contact can be indirect. Some entries that bind do so weakly or less than the wild type.

With POLD2 (from UniProt P49005 1-469), the binding entry is recorded as “binds”.

Source of the values: publication PMC8527565.
